Results deposited as PubChem BioAssay AID1259254 (NCATS, 2017).
In all, the deposit lists about 59,000 reagents; shown is a part drawn at random. About 1,550 of all reagents (2.6%) count as active. 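G2 share is only a proxy for re-replication; each gene was hit by three separate siRNAs, and active genes were retested.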 A number with no mark means an inactive call. Reagents against one gene are numbered here. Further read-outs or replicates are left out here. Not stated in the record: the amount of reagent.

- Purpose: 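Genome-wide screen for genes that prevent DNA re-replication in cancer cells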 (primary screen)
- Cells: human HCT116 colorectal cancer cells
- Reagent: single siRNA against human genes
- Timing: 3 days
- Read-out: 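Imaged Hoechst DNA stain sorts each cell into a cycle phase by DNA amount; per plate, G2 fraction set to 0% for non-targeting and 100% for GMNN siRNA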
- Scale: G2 robust z-score: higher = more G2 cells, more excess DNA replication
- Rule for the call: 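An siRNA counts as active if its G2 robust z-score lies at least 5 MADs above the screen median; here such calls match roughly 38% of GMNN control or more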

With knock-down of TAPBP (TAP binding protein) #1 the results were G2 robust z-score 0.43.
TAPBP (TAP binding protein) #2 gave G2 robust z-score 4.31.
Knock-down of TAPBP (TAP binding protein) #3 gave: G2 robust z-score -0.584.
For KATNAL2 (katanin catalytic subunit A1 like 2) #1, the values are G2 robust z-score 0.601.
Knock-down of KATNAL2 (katanin catalytic subunit A1 like 2) #2 came out at: G2 robust z-score -0.559.
Against KATNAL2 (katanin catalytic subunit A1 like 2) #3, the values are G2 robust z-score 4.17.

2 consecutive records from above:
TAPBP (TAP binding protein) #3 | G2 robust z-score: -0.584
KATNAL2 (katanin catalytic subunit A1 like 2) #1 | G2 robust z-score: 0.601

Further entries:
CBX7 (chromobox 7) #1 scored G2 robust z-score -0.847.
Depletion of CBX7 (chromobox 7) #2 resulted in: G2 robust z-score 2.12.
After knock-down of CBX7 (chromobox 7) #3, the screen gave G2 robust z-score 0.799.
Knock-down of OR2T10 (olfactory receptor family 2 subfamily T member 10) #1 came out at: G2 robust z-score 1.41.
Against OR2T10 (olfactory receptor family 2 subfamily T member 10) #2, the values are G2 robust z-score 0.921.
Silencing of OR2T10 (olfactory receptor family 2 subfamily T member 10) #3 came out at: G2 robust z-score -0.349.
